# From PubChem BioAssay AID2685 (National Center for Advancing Translational Sciences (NCATS), 2010)
# This is one part of the list. Further columns of the screen follow, without active or inactive calls. The list favours compounds with an active or inconclusive main result. Words in brackets tell the shape of the fitted curve; partial curves, single points and poor fits give uncertain potencies.
# Test: qHTS Assay for Lipid Storage Modulators in Drosophila S3 Cells;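 on cell number change: cells counted by Cell Tracker Red CMTPX staining in the red channel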
# Details: BODIPY lipid droplet fluorescence, 18-24 h; for cell number change: measured here: cell count max response, cells fed with added oleic acid
# Method in brief: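 Laser-scanning cytometry quantifies lipid droplet accumulation (500–530 nm total intensity; droplet/cell object ratio) in oleic acid-fed (400 uM added) Drosophila S3 cells treated with a concentration series. 20 uM Triacsin C defined 100% inhibition.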
# [1] = measured here: lipid fluorescence (Fed channel) AC50, cells fed with added oleic acid
# [2] = measured here: cell number channel AC50, cells fed with added oleic acid
Structure (SMILES),cell number change,AC50 [1],AC50 [2]
CN(CC(=O)Nc1ccccc1Cl)C(=O)c1ccc(N2CCCCCC2)c([N+](=O)[O-])c1,13.5%,"0.0731 µM [rising, full curve, poor fit]",–
CCCn1c(SCC(=O)Nc2sc(C)c(C)c2C(=O)OCC)nc2c1c(=O)n(C)c(=O)n2C,15.3%,"0.164 µM [rising, full curve, poor fit]",–
O=C(c1ccco1)N1CCn2cccc2C1c1ccccc1 (configuration not stated),-7.73%,"6.51 µM [rising, partial curve, poor fit]",–
O=C1C=C(c2ccc(OC(F)(F)F)cc2)C[C@@H](c2ccc(Cl)cc2)C1,1.96%,–,"1.46 µM [falling, partial curve]"
O=C(CCNC(=O)c1ccccc1Cl)Nc1ccncc1,4.41%,–,–
CN1CCC(=NOc2ccc([N+](=O)[O-])cc2)CC1,5.58%,"6.51 µM [falling, single point]",–
CN1CCN(C(=O)/C=C/c2cccc(Cl)c2)CC1,-22.8%,"29.1 µM [falling, single point]",–
O=C(c1ccco1)N1CCN(C(c2ccccc2Cl)c2nnnn2CC2CCCO2)CC1 (configuration not stated),0.337%,"6.51 µM [rising, single point]",–
COC1=C(Nc2ccccc2)C(=O)c2ccccc2C1=O,-65.7%,"14.6 µM [falling, partial curve]","29.1 µM [falling, single point]"
COc1ccc(Oc2cc(C)c3cccc(C)c3n2)cc1,3.15%,"29.1 µM [rising, single point]",–
CC1(C)C(c2ccccc2)=[N+]([O-])CN1O,0.845%,–,–
COC(=O)CCN(C(=O)c1cc(OC)c(OC)c(OC)c1)c1ccccn1,-2.01%,"25.9 µM [falling, partial curve, poor fit]","0.0326 µM [falling, full curve, poor fit]"
Cc1ccc(NC(=O)NCCN2CCN(c3ccccc3)CC2)cc1Cl,70.8%,–,"16.4 µM [rising, single point]"
Cc1ccc(CNC(=O)CO/N=C/c2ccc(C(C)(C)C)cc2)cc1,-45.5%,"23.1 µM [falling, single point]","18.4 µM [falling, single point]"
O=C(NCCN1CCN(C(=O)c2cccs2)CC1)C(=O)Nc1ccc(Br)cc1,–,"8.2 µM [rising, partial curve]","0.651 µM [rising, partial curve, poor fit]"
COc1ccccc1CC(=O)Nc1ccc([N+](=O)[O-])cc1OC,14.3%,–,–
CCOc1ccc2nc(NC(=O)C34CC5CC(CC(NC(C)=O)(C5)C3)C4)sc2c1,42.7%,–,"29.1 µM [rising, single point]"
CCCc1nc2ccccc2c(C(=O)OCC(=O)c2ccc3c(c2)NC(=O)CO3)c1CC,–,"6.51 µM [falling, single point]",–
COCC(C)n1c(C)cc(C(=O)COC(=O)C2=NN(c3ccccc3)C(=O)CC2)c1C (configuration not stated),21.2%,"6.51 µM [falling, single point]",–

Structure (SMILES),cell number change,AC50 [1],AC50 [2]
COc1ccc(CCNC(=O)c2ccc3c(c2)SC2=NS(=O)(=O)CCN23)cc1,–,"2.59 µM [rising, full curve, poor fit]",–
CCOC(=O)c1ccc2ncc(C(=O)OCC)c(Nc3ccc(N4CCOCC4)cc3)c2c1,0.801%,"4.61 µM [falling, partial curve]","3.66 µM [falling, single point]"
COc1ccc(C2C(C(=O)c3ccccc3)=C(C)Nc3nc4ccccc4n32)c(OC)c1 (configuration not stated),-9.89%,"0.92 µM [rising, full curve, poor fit]",–
COc1ccc(CN2CCc3ccc(NC(=O)c4ccncc4)cc3C2)c(F)c1,–,–,"0.291 µM [rising, partial curve]"
COc1ccc(CCNC(=O)c2ccccc2NC(=O)C2=C(C)OCCS2)cc1OC,10.6%,"25.9 µM [rising, partial curve]",–
O=C(NCCCc1ccccc1)c1ccc(CS(=O)Cc2ccccc2Cl)o1 (configuration not stated),10.7%,"6.51 µM [rising, single point]",–
CC(=O)N(C(C)=O)N1C(=O)C2C3c4ccccc4C(c4ccccc43)C2C1=O (configuration not stated),-21.3%,–,–
Cc1cc(C)cc(NC(=O)CSc2ccc(-c3cccs3)nn2)c1,-27.8%,"25.9 µM [falling, single point]",–
CCN(C(=O)c1cc2c(=O)[nH]c3ccc(C)cc3c2s1)c1ccccc1F,–,"20.6 µM [rising, single point]",–
CS(=O)(=O)N(CCc1ccccc1)CC(=O)N1CCN(c2ccc(F)cc2)CC1,-11.7%,"29.1 µM [falling, single point]",–
S=C(NCC1CCCO1)Nc1cc(Cl)c(Cl)cc1Cl (configuration not stated),–,"6.51 µM [rising, single point]","6.51 µM [rising, single point]"
COc1cccc(OC)c1C(=O)Nc1ccc2c(c1)N(S(=O)(=O)c1cccs1)CCC2,-2.99%,"0.82 µM [rising, full curve, poor fit]",–
Cc1ccc(S(=O)(=O)N2CCCC(C(=O)NCCc3ccc4c(c3)OCO4)C2)cc1 (configuration not stated),31%,"5.17 µM [rising, partial curve]","1.84 µM [rising, full curve]"
CCCCOC(=O)CSCC(=O)Nc1cc(C)on1,23.2%,–,–
CCCCN(CCCC)S(=O)(=O)c1ccc(NC(=O)CN2CCOCC2)cc1,-32.1%,–,"29.1 µM [falling, single point]"
COc1ccc(NC(=O)c2sc(NC(=O)C3CC3)nc2C)cc1,10.6%,"14.6 µM [falling, single point]",–
CCc1cc(C(=O)COc2ccccc2F)c(O)cc1O,-195%,–,"29.1 µM [falling, single point]"
COc1ccc(C(=O)N/C(=C\c2ccccc2)C(=O)Nc2ccc(C(=O)O)cc2)cc1,30.3%,–,"10.3 µM [rising, partial curve]"
CC(=O)c1ccc(N2CCN(C(=O)C3CCN(S(=O)(=O)c4ccc5c(c4)CC(C)N5C(=O)C4CC4)CC3)CC2)cc1 (configuration not stated),-27.4%,"23.1 µM [falling, single point]",–

# Grouped by structure: those above containing an aryl thioether with sulfur outside any ring (two)
Structure (SMILES),cell number change,AC50 [1],AC50 [2]
CCCn1c(SCC(=O)Nc2sc(C)c(C)c2C(=O)OCC)nc2c1c(=O)n(C)c(=O)n2C,15.3%,"0.164 µM [rising, full curve, poor fit]",–
Cc1cc(C)cc(NC(=O)CSc2ccc(-c3cccs3)nn2)c1,-27.8%,"25.9 µM [falling, single point]",–
